# Data as given in patent publication US20160289698A1.
# No constants are given. Whether binding was seen depends on the method and setting. In cells and extracts the contact can be indirect. Some binding calls cover weakened binding; strength is not graded here. Sequences can lack the tags named with a protein.
# T1: HA-tagged ARR12 (Arabidopsis) (UniProt P62598)
# T1 sequence (looked up): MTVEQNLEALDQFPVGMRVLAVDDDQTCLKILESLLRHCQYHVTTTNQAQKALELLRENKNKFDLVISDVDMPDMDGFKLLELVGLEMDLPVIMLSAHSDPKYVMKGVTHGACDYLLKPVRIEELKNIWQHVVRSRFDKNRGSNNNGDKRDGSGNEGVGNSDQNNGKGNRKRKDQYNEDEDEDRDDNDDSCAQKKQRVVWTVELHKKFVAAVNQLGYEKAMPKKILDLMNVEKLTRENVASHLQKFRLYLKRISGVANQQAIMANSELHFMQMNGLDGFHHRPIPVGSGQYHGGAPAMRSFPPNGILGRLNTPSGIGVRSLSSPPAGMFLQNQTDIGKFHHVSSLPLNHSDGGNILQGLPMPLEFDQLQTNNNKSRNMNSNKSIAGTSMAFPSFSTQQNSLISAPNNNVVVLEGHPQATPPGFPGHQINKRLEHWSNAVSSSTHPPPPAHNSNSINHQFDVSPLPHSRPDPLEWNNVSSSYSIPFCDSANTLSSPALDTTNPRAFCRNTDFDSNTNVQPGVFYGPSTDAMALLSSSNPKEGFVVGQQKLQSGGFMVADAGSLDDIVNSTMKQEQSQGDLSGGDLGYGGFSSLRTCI
# B1: OsKMD2-GFP (protein, not shown: large carriers; small tags and cut ends)
# chain: MGYNELIPGLPEEVARECLIRVGFDQLPAVRRISRQWKAEVESPAYNRLRKAEGLARPALALVQARRELAEAGPAADKQSSAGGVPGNSYRMVLLDPAEGRWTPLPEVGGASGSLPLFCQVAAVDGGVEGRKRLVVVGGWDPETWAPTDSVLVYDFLTGAWRRGAAMPGPRRSFFACAAVGGKVFVAGGHDEEKNALRSALAYDPDADAWAALPDMAEERDEPRGLCVDGKFLVVGGYPTPAQGRFVGSAEWFDPATSTWSAVQEGFVDDGACPRTCSAAPEAGDRMYMLRDGHLVARHGAISSAPAAWRPVAPVPEDARTAAAVSVIPDGRVVVIGSDCHGGDQTVYTLREEAGKPASWARAPAPPEFSGHVQAACLLEI
# Biological target: T1, HA-tagged ARR12 (Arabidopsis)
# Experiment: co-immunoprecipitation with anti-GFP antibody from co-transfected Arabidopsis protoplasts
binder,measurement,value
B1,binding,binds
